Measured values taken from patent US20240279618A1, “RECEPTOR TYROSINE KINASE AGONIST, COMPOSITION FOR CELL CULTURE MEDIUM, AND […] MAINTENANCE COMPOSITION” (SEKISUI CHEMICAL CO., LTD., priority 2021, published 2024).
Some of these results come from one statement about several compounds together.

B1: #1-L4-#1: dimer of VHH #1 with linker L4 (GSEGKSSGSGSESKST), SEQ ID NO: 23 (protein)
VHH: QLQLVESGGGSVQAGGSLRLSCAASRSLSRFNVWTWYRQAPVKQRELVASITKSGDTNYAESVKGRFIISRDDDKNTVYLQMNNLKSEDTGIYYCAGSYYSGSYLYPSPGGFSVWGQGTQVTVSSGSEGKSSGSGSESKSTQLQLVESGGGSVQAGGSLRLSCAASRSLSRFNVWTWYRQAPVKQRELVASITKSGDTNYAESVKGRFIISRDDDKNTVYLQMNNLKSEDTGIYYCAGSYYSGSYLYPSPGGFSVWGQGTQVTVSS
modifications: #1-L4-#1

Test system: human bone marrow-derived MSC
Assay: MSC culture: evaluation of MSC markers by flow cytometry
Assay type: cell-based
Settings: MSC fourth passage, 10% or 20% FBS, regardless of the concentrations
Description: On Day 5 after the initial seeding, D-PBS was added to the cells and removed by suction. 500 μL of TrypLE Express was added to each well and the mixture was left to stand in a CO2 incubator for 5 to 10 minutes. The cells were observed under a microscope, and in a case where it was possible to confirm that the cells had changed in morphology, a medium was added thereto, and the cells were recovered in a PP tube by pipetting, and centrifuged (300× g, 5 minutes). After the centrifugation, the supernatant was removed by suction, an appropriate amount of 1% BSA/PBS was added to the pellet, and the mixture was pipetted to form a suspension.
A part of the suspension was collected and the number of cells was evaluated with a cell counter. Dilution was performed with 1% of BSA/PBS, so that the concentration was 0.6 to 1.0× 10^6 cells/mL. 50 μL of the mixture was dispensed into a 2 mL tube, so that the concentration was 3 to 5×10^4 cells/tube.
Equal amounts of the suspension subjected to the cell counter and the antibody solution adjusted above were mixed, and the mixture was left to stand on ice for 30 minutes or longer with light shielded. 1% of BSA/PBS was added thereto, the mixture was centrifuged (400 to 600×g, 5 minutes), and then the supernatant was removed by suction. Then, 300 to 500 μL of 1% BSA/PBS was added thereto, and the pipetted sample was subjected to flow cytometric analysis using an Attune NxT Flow Cytometer (Thermo Fisher Scientific, Inc.).

Molecule	CD10^5-expressing cells [%]	CD73-expressing cells [%]
FGF2: fibroblast growth factor (basic), human, recombinant (154aa), positive control; SEQ ID NO: 58 [reference compound]	≥ 98	≥ 98
B1	≥ 98	≥ 98
